No constants are given. Whether binding was seen depends on the method and setting. Binding seen in cells or lysates may run through a third protein. Here binding means that the protein was enriched with, or labelled near, the bait; the list need not be complete. For some of these results: No binding means not detected with the bait. For some of these results: Where a sequence is shown, tags or fusion partners need not be part of it. Each block holds one binder with its values, some of them ahead of it.
Legend:
[1] = molecular target: T1, GFP-ATG5 K130R (mouse) (UniProt Q99J83); assay: affinity purification with mass spectrometry; GFP-Trap immunoisolation from lysates of SILAC-labelled atg5-/- MEFs stably expressing GFP, WT GFP-ATG5 or GFP-ATG5 K130R, starved 1 h; LC-MS/MS; hits: 2 or more peptides, >2-fold enrichment over GFP
T1 sequence: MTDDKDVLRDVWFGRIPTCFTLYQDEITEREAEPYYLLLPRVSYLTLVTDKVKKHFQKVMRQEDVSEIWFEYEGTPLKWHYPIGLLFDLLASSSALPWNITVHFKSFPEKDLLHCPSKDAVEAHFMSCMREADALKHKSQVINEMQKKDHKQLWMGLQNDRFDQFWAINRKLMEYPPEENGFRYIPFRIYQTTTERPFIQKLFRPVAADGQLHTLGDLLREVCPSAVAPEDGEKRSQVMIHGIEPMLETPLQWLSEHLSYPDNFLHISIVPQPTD

[2] = molecular target: wild-type GFP-ATG5 (mouse) (UniProt Q99J83); assay: affinity purification with mass spectrometry; GFP-Trap SILAC proteomics from atg3-/- MEFs stably expressing GFP, WT GFP-ATG5 or GFP-ATG5 K130R, after nutrient starvation; hits: peptide count 2 or more, >2-fold enriched over GFP and GFP-ATG5 K130R; bait expressed alongside endogenous ATG5
[3] = molecular target: wild-type GFP-ATG5 (mouse) (UniProt Q99J83); assay: affinity purification with mass spectrometry; GFP-Trap immunoisolation from lysates of SILAC-labelled atg5-/- MEFs stably expressing GFP, WT GFP-ATG5 or GFP-ATG5 K130R, starved 1 h; LC-MS/MS; hits: 2 or more peptides, >2-fold enrichment over GFP

B1: ATG16L2 (protein, UniProt Q6KAU8 1-623)
chain: MAGPGAPCDPCAPAAVWKRHIVRQLRHRDRTQKALFLELVPAYNHLLEKAELLAKFSEKLKSEPKDAISTRHEDWREEVSGTGPDQVSSPASLRVKWQQEKKGLQLVCGEMAYQVVKKSAALDTLQSQLEERQDRLEALQACVVQLQEARAQQSRQLEERQAENAAQREAYETLLQQAVHQEAALRRLQEEARDLLEQLVQRKARAAAERNLRNERRERANQALVSQELKKAAKRTVSISEIPNTLEDGTKEETVALAPAALPEFSESETCEKWKRPFRSASATSLTLSRCVDVVKGLLDFKKRRGHSVGGAPEQRYQSIPVCVSAQIPSQAQDVLDAHLSEVNAVCFGPNSSLLATGGADRLIHLWNVVGGRLEANQTLEGAGGSITSVDFDPSGSQVLAATYNQAAQLWKVGETQSKETLSGHKDKVTAAKFKLTRHQAVTGSRDRTVKEWDLGRAYCSRTINVLSYCNDVVCGDHIIISGHNDQKIRFWDSRGPHCIQVIPVQGRVTSLHLSYDQLHLLSCSRDNTLKVIDLRISNIRQVFRADGFKCSSDWTKAVFSPDRSYALAGSSNGDLYIWDVNTGKLETSLQGPHCTAVNAVAWCFSGNHVVSVDQGRKVVLWH
binding [1]: binds | binding [2]: binds

B2: ULK1 (protein, UniProt O70405 1-1051)
chain: MEPGRGGVETVGKFEFSRKDLIGHGAFAVVFKGRHREKHDLEVAVKCINKKNLAKSQTLLGKEIKILKELKHENIVALYDFQEMANSVYLVMEYCNGGDLADYLHTMRTLSEDTVRLFLQQIAGAMRLLHSKGIIHRDLKPQNILLSNPGGRRANPSNIRVKIADFGFARYLQSNMMAATLCGSPMYMAPEVIMSQHYDGKADLWSIGTIVYQCLTGKAPFQASSPQDLRLFYEKNKTLVPAIPRETSAPLRQLLLALLQRNHKDRMDFDEFFHHPFLDASTPIKKSPPVPVPSYPSSGSGSSSSSSSASHLASPPSLGEMPQLQKTLTSPADAAGFLQGSRDSGGSSKDSCDTDDFVMVPAQFPGDLVAEAASAKPPPDSLLCSGSSLVASAGLESHGRTPSPSPTCSSSPSPSGRPGPFSSNRYGASVPIPVPTQVHNYQRIEQNLQSPTQQQTARSSAIRRSGSTTPLGFGRASPSPPSHTDGAMLARKLSLGGGRPYTPSPQVGTIPERPSWSRVPSPQGADVRVGRSPRPGSSVPEHSPRTTGLGCRLHSAPNLSDFHVVRPKLPKPPTDPLGATFSPPQTSAPQPCPGLQSCRPLRGSPKLPDFLQRSPLPPILGSPTKAGPSFDFPKTPSSQNLLTLLARQGVVMTPPRNRTLPDLSEASPFHGQQLGSGLRPAEDTRGPFGRSFSTSRITDLLLKAAFGTQASDSGSTDSLQEKPMEIAPSAGFGGTLHPGARGGGASSPAPVVFTVGSPPSGATPPQSTRTRMFSVGSSSSLGSTGSSSARHLVPGACGEAPELSAPGHCCSLADPLAANLEGAVTFEAPDLPEETLMEQEHTETLHSLRFTLAFAQQVLEIAALKGSASEAAGGPEYQLQESVVADQISQLSREWGFAEQLVLYLKVAELLSSGLQTAIDQIRAGKLCLSSTVKQVVRRLNELYKASVVSCQGLSLRLQRFFLDKQRLLDGIHGVTAERLILSHAVQMVQSAALDEMFQHREGCVPRYHKALLLLEGLQHTLTDQADIENIAKCKLCIERRLSALLSGVYA
binding [1]: binds

B5: ATG101 (protein, UniProt Q9D8Z6 1-218)
chain: MNCRSEVLEVSVEGRQVEEAMLAVLHTVLLHRSTGKFHYKKEGTYSIGTVGIQDVDCDFIDFTYVRVSSEELDRALRKVVGEFKDALRNSGGDGLGQMSLEFYQKKKSRWPFSDECIPWEVWTVKVHVVALATEQERQICREKVGEKLCEKIINIVEVMSRHEYLPKMPTQSEVDNVFDTGLRDVQPYLYKISFQITEALGTSVTTTMRRLIKDTLAL
binding [1]: no binding | binding [3]: no binding

Continued, values first:

binding [1]: binds | binding [3]: binds | binding [2]: binds
B3: TECPR1 (tectonin beta-propeller repeat containing 1) (protein, UniProt Q80VP0 1-1166)
chain: MPTSVLWAVDLFGRVYTLSTAGQYWELCKDVQLEFKRVSAATQCCWGIAGDNQVYLYVCSSDVPIRHREEAYENQRWNPMGGFCEKLLPSDRWPWSDVSGLQHRPLDGVALPSPHWEWESDWYVDENFGGEPTEKGGWTYAMDFPATYTRDKKWNSCVRRRKWIRYRRYKSRDSWAKIPSKDDPKELPDPFNDLSVGGWEITEEPVGRLSVWAVSLQGKVWYREDVSHPNPEGSSWSLVETPGEVVQISCGPHDLIWATLWEGQALVREGVCRNNPKGSYWSMVEPPGSENGIMHVSAGVSVVWAITKDRKVWFRRGVNSHNPCGTSWIEMVGEMTMVNVGLNDQVWGISCEDRAVYFRQGVTPSELSGKTWKAIVVGRESDRSHSGSSSSLLSAGCFFGDEVRGSGTESAPSDTDASLEVERQGPEQPLPKEALDNSTNLKGSLSKGHETSGNTDHSTENACLTEGKEKAPETSRSDECRGPASTPAELPWTNIDLKEPKKVSNQPAAGFPETAGLSSLGLFPMGMEEPYGADDHPLWAWVSGGACAVEAGSTLKWFTIQSGLSPSVQTLSLSITPAQTAAWRKQIFQQLTERTKRELESFRHYEQAVEQSVWVKTGALQWWCDWKPHKWVDVRVALEQFTGHDGARDSILFIYYVVHEEKKYLHVFLNEVTVLVPVLNEAKHSFALYTPERTRQRWPVRLAAATEQDMNDWLALLSLSCCESRKVHGRPSPQAIWSVTCKGDIFVSEPSPDLEARERLLPCDQMFWRQMGGHLRIIEANSRGVVWGIGYDHTAWVYTGGYGGGCFQGLASSTSNIYTQSDVKSVYIYENQRWNPVTGYTSRGLPTDRFMWSDVTGLQECTKAGTKPPSLQWTWVSDWYVDFSVPGGTDQEGWQYASDFPASYHGYKTMKDFVRRRCWARKCKLVTSGPWLEVAPITLSDVSIIPESAHADGRGHNVALWAVSDKGDVLCRLGVSELNPAGSSWLHVGTDQPFASVSIGACYQVWAVARDGSAFYRGSVSPSQPAGDCWYHIPSPPKQKLTQVSVGQTSVYALDENGNLWYRAGITPSYPQGSSWEHVSNNVRKVSVGPLDQVWVIANKVQGSHGLSRGTVCRRMGVQPREPKGQGWDYGIGGGWDHISVRANATRVPRNMSRDREARGPGPVCC

binding [1]: no binding | binding [3]: no binding
B4: ATG13 (protein, UniProt Q91YI1 1-516)
chain: METELSSQDRKDLDKFIKFFALKTVQVIVQARLGEKICTRSSSSPTGSDWFNLAIKDIPEVTHEAKKALSGQLPAVGRSMCVEISLKTSEGDSMELEIWCLEMNEKCDKEIKVSYTVYNRLSLLLKSLLAITRVTPAYRLSRKQGHEYVILYRIYFGEVQLNGLGEGFQTVRVGTVGTPVGTLTLSCAYRINLAFMSTRQFERTPPIMGIIIDHFVDRPYPSSSPMHPCNYRTAEDAGVAYPSVEDSQEVCTTSFSTSPPSQLSSSRLSYQPAVLGLGSADLAYPVVFTAGLNTTHAHQLMVPGKEGGVTLAPSHPTHGAQADPERLVMHMPSDGTHCAATPSSSEDTETVSNSSEGRASPHDILETIFVRKVGAFVNKPINQVTVTSLDIPFAMFAPKNLELEDADPMVNPPESPETTSPLHGSLHSDGSSGGSGGSTHDDFVMIDFKPAFSKDDILPMDLGTFYREFQNPPQLSSLSIDFGAQSMAEDLDSLPEKLAVHEKNVREFDAFVETLQ

Reference: article PMC9015699
